# Measured values from paper PMC11374673, “Discovery of isoquinoline sulfonamides as allosteric gyrase inhibitors with activity against fluoroquinolone-resistant bacteria” (Nature Chemistry, 2024).
# “And” between values parts separate entries of the source, which are not always exact repeats. Equal entries are not always repeated. This continues a long series; more values of the same kind are listed elsewhere.
# System: E. coli W3110
# Test: Checkerboard assay with PMBN
# Conditions: single wells (triplicate)
smiles,measurement,setting,value
O=S(=O)(NC[C@H]1CC[C@@H](c2ccc(-c3ccc(F)nc3)cc2)N1)c1cccc2cnccc12 [LEI-801],Checkerboard well reading (growth),LEI-801 3.125 µM + PMBN 0 µM,0.8382 and 0.7974 and 0.732
same,Checkerboard well reading (growth),LEI-801 3.125 µM + PMBN 0.5 µM,0.6863 and 0.6929 and 0.7137
same,Checkerboard well reading (growth),LEI-801 3.125 µM + PMBN 1 µM,0.6816 and 0.7281 and 0.6928
same,Checkerboard well reading (growth),LEI-801 3.125 µM + PMBN 2 µM,0.5743 and 0.5496 and 0.5936
same,Checkerboard well reading (growth),LEI-801 3.125 µM + PMBN 4 µM,0.538 and 0.5055 and 0.4178
same,Checkerboard well reading (growth),LEI-801 3.125 µM + PMBN 8 µM,0.2861 and 0.2251 and 0.3302
same,Checkerboard well reading (growth),LEI-801 3.125 µM + PMBN 16 µM,0.2551 and 0.2565 and 0.2074
same,Checkerboard well reading (growth),LEI-801 3.125 µM + PMBN 32 µM,0.2729 and 0.1999 and 0.1998
same,Checkerboard well reading (growth),LEI-801 6.25 µM + PMBN 0 µM,0.8581 and 0.7322 and 0.7314
same,Checkerboard well reading (growth),LEI-801 6.25 µM + PMBN 0.5 µM,0.6716 and 0.6113 and 0.629
same,Checkerboard well reading (growth),LEI-801 6.25 µM + PMBN 1 µM,0.4558 and 0.476 and 0.5078
same,Checkerboard well reading (growth),LEI-801 6.25 µM + PMBN 2 µM,0.3155 and 0.3496 and 0.1816
same,Checkerboard well reading (growth),LEI-801 6.25 µM + PMBN 4 µM,0.2201 and 0.1713 and 0.1584
same,Checkerboard well reading (growth),LEI-801 6.25 µM + PMBN 8 µM,0.1406 and 0.1377 and 0.1289
same,Checkerboard well reading (growth),LEI-801 6.25 µM + PMBN 16 µM,0.1351 and 0.1367 and 0.144
same,Checkerboard well reading (growth),LEI-801 6.25 µM + PMBN 32 µM,0.1452 and 0.1514 and 0.1597
same,Checkerboard well reading (growth),LEI-801 12.5 µM + PMBN 0 µM,0.7627 and 0.683 and 0.6448
same,Checkerboard well reading (growth),LEI-801 12.5 µM + PMBN 0.5 µM,0.5446 and 0.5575 and 0.5342
same,Checkerboard well reading (growth),LEI-801 12.5 µM + PMBN 4 µM,0.1492 and 0.1392
same,Checkerboard well reading (growth),LEI-801 12.5 µM + PMBN 8 µM,0.1454 and 0.1336 and 0.1401
same,Checkerboard well reading (growth),LEI-801 12.5 µM + PMBN 16 µM,0.1384 and 0.1425 and 0.1392
same,Checkerboard well reading (growth),LEI-801 12.5 µM + PMBN 32 µM,0.1398 and 0.147 and 0.1549
